Laboratory results: publication PMC2522278

Molecular target: T1, PUM1-HD-TAP (Homo sapiens) (UniProt Q14671)
T1 sequence (looked up): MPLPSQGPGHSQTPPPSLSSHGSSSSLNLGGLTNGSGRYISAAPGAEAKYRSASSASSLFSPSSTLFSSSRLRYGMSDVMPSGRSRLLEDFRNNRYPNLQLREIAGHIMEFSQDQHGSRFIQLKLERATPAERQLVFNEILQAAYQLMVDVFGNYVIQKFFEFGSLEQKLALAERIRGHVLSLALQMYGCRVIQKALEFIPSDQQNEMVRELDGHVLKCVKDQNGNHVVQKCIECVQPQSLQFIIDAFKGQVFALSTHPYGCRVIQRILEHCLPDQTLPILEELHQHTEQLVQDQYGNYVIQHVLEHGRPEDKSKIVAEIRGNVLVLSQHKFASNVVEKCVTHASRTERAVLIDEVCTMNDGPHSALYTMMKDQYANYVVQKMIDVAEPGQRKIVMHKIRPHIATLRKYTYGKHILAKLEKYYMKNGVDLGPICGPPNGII
Assay: competition with a labelled probe
Details: 100-fold excess over biotinylated Dll1 3'-UTR; Biotinylated RNA plus HeLa S3 extract, streptavidin magnetic bead pull-down, anti-PAP immunoblot; protein in a lysate after overexpression; residues 746-1186; protein details: C-terminal TAP

Sequence: AUACAAAAUA [R2 control RNA (UGU to ACA)]
- binding result: no binding

Sequence: AUUGUAAAUA [R1 competitor RNA]
- binding result: binds

Where cells or extracts were used, other partners may take part. A negative result means that nothing was seen under these conditions. Protein sequences can lack the tags named with them. Construct, isoform or probe ends are uncertain for at least one entry.
